# Cleaved PARP in drug-treated melanoma cells

From a melanoma drug combination screen (doi:10.1371/journal.pone.0140310); values rounded.

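Human melanoma cell lines in 1,536-well plates were treated with a pair of drugs for 72 h, then fixed, stained and imaged. Each value is the cleaved-PARP-positive fraction of nuclei relative to DMSO-treated wells, in %, so that 100 equals the control and higher values mean more apoptosis. Concentrations were fixed for each drug; these are the higher of two levels. The file gives one value for each pair and line, without errors, so small differences may be noise. The marker varies much from line to line, for technical or biological reasons.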
An unselected part of the screen is shown.

First drug in all entries: palbociclib, 0.2 µM, CC(=O)c1c(C)c2cnc(Nc3ccc(N4CCNCC4)cn3)nc2n(C2CCCC2)c1=O

Drugs:
pazopanib, 2 µM: Cc1ccc(Nc2nccc(N(C)c3ccc4c(C)n(C)nc4c3)n2)cc1S(N)(=O)=O
dasatinib, 0.02 µM: Cc1nc(Nc2ncc(C(=O)Nc3c(C)cccc3Cl)s2)cc(N2CCN(CCO)CC2)n1
BMS-536924, 1 µM: Cc1cc(N2CCOCC2)cc2[nH]c(-c3c(NC[C@@H](O)c4cccc(Cl)c4)cc[nH]c3=O)nc12
FH535, 5 µM: Cc1cc([N+](=O)[O-])ccc1NS(=O)(=O)c1cc(Cl)ccc1Cl
MK-2206, 2 µM: NC1(c2ccc(-c3nc4ccn5c(=O)[nH]nc5c4cc3-c3ccccc3)cc2)CCC1
NVP-BEZ235, 0.02 µM: Cn1c(=O)n(-c2ccc(C(C)(C)C#N)cc2)c2c3cc(-c4cnc5ccccc5c4)ccc3ncc21
BI-D1870, 1 µM: CC(C)CCN1c2nc(Nc3cc(F)c(O)c(F)c3)ncc2N(C)C(=O)C1C (stereo not drawn)
A-769662, 10 µM: N#Cc1c(O)c2c(-c3ccc(-c4ccccc4O)cc3)csc2[nH]c1=O
GSK650394, 0.8 µM: O=C(O)c1ccc(-c2c[nH]c3ncc(-c4ccccc4)cc23)cc1C1CCCC1
ENMD-2076, 0.2 µM: Cc1cc(Nc2cc(N3CCN(C)CC3)nc(/C=C/c3ccccc3)n2)n[nH]1
decitabine, 0.5 µM: Nc1ncn([C@H]2C[C@H](O)[C@@H](CO)O2)c(=O)n1
embelin, 6 µM: CCCCCCCCCCCC1=C(O)C(=O)C=C(O)C1=O
XAV939, 10 µM: Oc1nc(-c2ccc(C(F)(F)F)cc2)nc2c1CSCC2
lestaurtinib, 0.02 µM: C[C@]12O[C@H](C[C@]1(O)CO)n1c3ccccc3c3c4c(c5c6ccccc6n2c5c31)CNC4=O
JZL184, 5 µM: O=C(Oc1ccc([N+](=O)[O-])cc1)N1CCC(C(O)(c2ccc3c(c2)OCO3)c2ccc3c(c2)OCO3)CC1
NVP-TAE684, 0.4 µM: COc1cc(N2CCC(N3CCN(C)CC3)CC2)ccc1Nc1ncc(Cl)c(Nc2ccccc2S(=O)(=O)C(C)C)n1
GW2580, 5 µM: COc1ccc(COc2ccc(Cc3cnc(N)nc3N)cc2OC)cc1
lenalidomide, 5 µM: Nc1cccc2c1CN(C1CCC(=O)NC1=O)C2=O (stereo not drawn)
SNS-314, 0.004 µM: O=C(Nc1cccc(Cl)c1)Nc1ncc(CCNc2ncnc3ccsc23)s1
vorinostat, 0.4 µM: O=C(CCCCCCC(=O)Nc1ccccc1)NO
GW0742, 10 µM: Cc1cc(SCc2sc(-c3ccc(C(F)(F)F)c(F)c3)nc2C)ccc1OCC(=O)O
nilotinib, 1 µM: Cc1cn(-c2cc(NC(=O)c3ccc(C)c(Nc4nccc(-c5cccnc5)n4)c3)cc(C(F)(F)F)c2)cn1
PF-562271, 0.4 µM: CN(c1ncccc1CNc1nc(Nc2ccc3c(c2)CC(=O)N3)ncc1C(F)(F)F)S(C)(=O)=O
tipifarnib, 0.05 µM: Cn1cncc1[C@@](N)(c1ccc(Cl)cc1)c1ccc2c(c1)c(-c1cccc(Cl)c1)cc(=O)n2C
vismodegib, 5 µM: CS(=O)(=O)c1ccc(C(=O)Nc2ccc(Cl)c(-c3ccccn3)c2)c(Cl)c1
PLX4720, 0.4 µM: CCCS(=O)(=O)Nc1ccc(F)c(C(=O)c2c[nH]c3ncc(Cl)cc23)c1F
CX-4945, 2 µM: O=C(O)c1ccc2c(c1)nc(Nc1cccc(Cl)c1)c1ccncc12
lapatinib, 4 µM: CS(=O)(=O)CCNCc1ccc(-c2ccc3ncnc(Nc4ccc(OCc5cccc(F)c5)c(Cl)c4)c3c2)o1
indole-3-carbinol, 4 µM: OCc1c[nH]c2ccccc12
crizotinib, 1 µM: C[C@@H](Oc1cc(-c2cnn(C3CCNCC3)c2)cnc1N)c1c(Cl)ccc(F)c1Cl
bexarotene, 10 µM: C=C(c1ccc(C(=O)O)cc1)c1cc2c(cc1C)C(C)(C)CCC2(C)C
AZD7762, 0.1 µM: NC(=O)Nc1cc(-c2cccc(F)c2)sc1C(=O)N[C@H]1CCCNC1

lestaurtinib gave WM115: 97.5; LOX IMVI: 237; SK-MEL-28: 187; RVH-421: 210. With CX-4945 the screen read WM115: 206; LOX IMVI: 125; SK-MEL-28: 107; RVH-421: 96.4. crizotinib gave WM115: 402; LOX IMVI: 105; SK-MEL-28: 68.7; RVH-421: 154. dasatinib gave WM115: 592; LOX IMVI: 171; SK-MEL-28: 403; RVH-421: 80.5. Results for AZD7762 are WM115: 86.0; LOX IMVI: 101; SK-MEL-28: 75.8; RVH-421: 39.4.

Results for tipifarnib are WM115: 85.8; LOX IMVI: 429; SK-MEL-28: 163; RVH-421: 152. lapatinib gave WM115: 189; LOX IMVI: 435; SK-MEL-28: 39.1; RVH-421: 615. Results for XAV939 are WM115: 226; LOX IMVI: 90.4; SK-MEL-28: 248; RVH-421: 65.8. With lenalidomide the screen read WM115: 62.8; LOX IMVI: 57.2; SK-MEL-28: 148; RVH-421: 109. Results for decitabine are WM115: 116; LOX IMVI: 142; SK-MEL-28: 187; RVH-421: 34.5.

A-769662 gave WM115: 44.8; LOX IMVI: 63.6; SK-MEL-28: 63.6; RVH-421: 40.5. PLX4720 gave WM115: 288; LOX IMVI: 84.1; SK-MEL-28: 296; RVH-421: 44.3. For indole-3-carbinol the values were WM115: 101; LOX IMVI: 204; SK-MEL-28: 75.1; RVH-421: 271. NVP-TAE684 gave WM115: 141; LOX IMVI: 88.9; SK-MEL-28: 160; RVH-421: 158. For bexarotene the values were WM115: 175; LOX IMVI: 74.3; SK-MEL-28: 211; RVH-421: 202.

For nilotinib the values were WM115: 53.1; LOX IMVI: 237; SK-MEL-28: 223; RVH-421: 152. With BI-D1870 the screen read WM115: 207; LOX IMVI: 95.8; SK-MEL-28: 120; RVH-421: 63.3. GW0742 gave WM115: 98.8; LOX IMVI: 121; SK-MEL-28: 57.1; RVH-421: 256. embelin gave WM115: 291; LOX IMVI: 92.5; SK-MEL-28: 211; RVH-421: 167. vismodegib gave WM115: 170; LOX IMVI: 230; SK-MEL-28: 42.0; RVH-421: 136.

Results for JZL184 are WM115: 167; LOX IMVI: 102; SK-MEL-28: 56.7; RVH-421: 135. FH535 gave WM115: 51.9; LOX IMVI: 120; SK-MEL-28: 163; RVH-421: 90.3. For MK-2206 the values were WM115: 501; LOX IMVI: 34.9; SK-MEL-28: 82.0; RVH-421: 86.2. PF-562271 gave WM115: 167; LOX IMVI: 152; SK-MEL-28: 95.5; RVH-421: 172. With pazopanib the screen read WM115: 106; LOX IMVI: 173; SK-MEL-28: 57.9; RVH-421: 280.

With NVP-BEZ235 the screen read WM115: 206; LOX IMVI: 81.8; SK-MEL-28: 64.0; RVH-421: 97.5. With GW2580 the screen read WM115: 122; LOX IMVI: 62.3; SK-MEL-28: 66.1; RVH-421: 119. ENMD-2076 gave WM115: 178; LOX IMVI: 106; SK-MEL-28: 118; RVH-421: 103. Results for vorinostat are WM115: 129; LOX IMVI: 102; SK-MEL-28: 144; RVH-421: 134. Results for SNS-314 are WM115: 119; LOX IMVI: 82.3; SK-MEL-28: 97.3; RVH-421: 60.8.

For GSK650394 the values were WM115: 272; LOX IMVI: 94.1; SK-MEL-28: 146; RVH-421: 96.7. BMS-536924 gave WM115: 420; LOX IMVI: 110; SK-MEL-28: 173; RVH-421: 173.

4 of the entries, repeated:

* MK-2206 : WM115: 501; LOX IMVI: 34.9; SK-MEL-28: 82.0; RVH-421: 86.2
* AZD7762 : WM115: 86.0; LOX IMVI: 101; SK-MEL-28: 75.8; RVH-421: 39.4
* GW2580 : WM115: 122; LOX IMVI: 62.3; SK-MEL-28: 66.1; RVH-421: 119
* FH535 : WM115: 51.9; LOX IMVI: 120; SK-MEL-28: 163; RVH-421: 90.3